Source: paper PMC7862700
The list shows a part of the results, in another mix than the full data. At the low end of the ranking the order means little.

target: T1, FEV (UniProt Q99581); assay: DAPPL (digital affinity profiling via proximity ligation, sequencing); conditions: 10 mM Tris-HCl pH 7.5, 50 mM NaCl, 1 mM DTT, 4% glycerol, room temperature, 30 min; GST-TFs on glutathione beads, 16-mer random dsDNA library, 0.1% …; high values mean tight binding; double strand, one strand shown; scale: fold enrichment (6-mer frequency, TF over GST control)
T1 sequence: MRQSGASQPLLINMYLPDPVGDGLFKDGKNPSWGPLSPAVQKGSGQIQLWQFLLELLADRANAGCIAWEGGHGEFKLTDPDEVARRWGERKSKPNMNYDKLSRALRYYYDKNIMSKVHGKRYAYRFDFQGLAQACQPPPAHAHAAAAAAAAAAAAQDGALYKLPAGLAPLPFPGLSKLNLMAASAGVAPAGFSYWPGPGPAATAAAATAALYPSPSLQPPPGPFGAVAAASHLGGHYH

Sequence	binding signal
TACTCA	1.24
CTACGC	1.62
TGATGC	1.44
AGGGAT	0.782
TTCTGA	1.22
ATTAAC	1.27
AGTATA	0.955
ATCAAC	1.13
CCGCTC	1.61
TTTTAT	1.32
AAGCTT	1.16
TCAAGA	0.757
AGAAGA	0.837
TAAACT	1.11
TCTAGG	1
TAGAAG	0.999
AGTCTT	0.883
AAGCCT	1.2
TTCGGC	1
GATAAA	0.949

Sequence	binding signal
GAATTA	0.983
GATCAC	0.95
CCCTAT	1.39
AGCTCT	1.19
TCCACT	1.54
CAGCCT	1.02
GTGGAT	0.816
GAATCA	0.895
TCCCAT	1.32
TTCTAA	1.18
TTTGCC	1.26
TTAGAG	0.83
CCTGCT	1.67
AATTCT	1.29
TCAATC	0.995
AGCCTA	1.01
GGCTTT	0.974
ATCCTA	1.32
AGCTGC	1.15

target: T2, ELF5 (UniProt Q9UKW6-2); assay: as above; conditions: 10 mM Tris-HCl pH 7.5, 50 mM NaCl, 1 mM DTT, 4% glycerol, room temperature, 30 min; GST-TFs on glutathione beads, 16-mer random dsDNA library, 0.1% …; high values mean tight binding; double strand, one strand shown; scale: fold enrichment (6-mer frequency, TF over GST control)
T2 sequence: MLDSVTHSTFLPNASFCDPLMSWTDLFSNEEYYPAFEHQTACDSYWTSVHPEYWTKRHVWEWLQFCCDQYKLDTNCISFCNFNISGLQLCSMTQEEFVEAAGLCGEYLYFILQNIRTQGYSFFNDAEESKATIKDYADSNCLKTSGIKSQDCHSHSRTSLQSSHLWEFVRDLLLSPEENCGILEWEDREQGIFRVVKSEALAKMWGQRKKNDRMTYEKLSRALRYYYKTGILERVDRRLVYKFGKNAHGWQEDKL

Sequence	binding signal
AGGGAT	0.873
TTCTGA	1.26
ATTAAC	1.23
TTTTAT	1.3
TCAAGA	0.846
AGAAGA	0.866
TAAACT	1.16
TCTAGG	1.07
GATAAA	0.946
GAATTA	1.03
GATCAC	0.9
CAGCCT	0.908
GTGGAT	0.946
GAATCA	0.866
TTAGAG	0.828
AATTCT	1.22
TCAATC	0.994
AGCCTA	0.991
GGCTTT	0.939
